Measurements as given in PubChem BioAssay AID2685 (National Center for Advancing Translational Sciences (NCATS), 2010).
The list shows a part of the results. Shown are side measurements of this screen, not its main read-out; they come without a call. Compounds called inactive in the main read-out are mostly missing here. The note in brackets gives the kind of curve behind each potency; many fits are weak.

Experiment: qHTS Assay for Lipid Storage Modulators in Drosophila S3 Cells;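 on cell number change: cells counted by Cell Tracker Red CMTPX staining in the red channel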
Settings: BODIPY lipid droplet fluorescence, 18-24 h; for cell number change: measured here: cell count max response, cells fed with added oleic acid
In short: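 Drosophila S3 cells got compounds at several concentrations plus oleic acid (400 uM solution). Laser-scanning cytometry with 488 nm excitation read lipid droplets at 500-530 nm and cells at 575-640 nm. Percent activity was relative to 20 uM Triacsin C.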

[1] = measured here: cell number channel AC50, cells fed with added oleic acid
[2] = measured here: lipid fluorescence (Fed channel) AC50, cells fed with added oleic acid

| SMILES | cell number change | AC50 [1] | AC50 [2] |
| --- | --- | --- | --- |
| Cc1ccc(S(=O)(=O)N2CCN(C(=O)N3CCOCC3)CC2)cc1C | 13.5% | 6.51 µM [rising, single point] | 29.1 µM [rising, single point] |
| O=c1cc[nH]c2ccc([N+](=O)[O-])cc12 | -18.8% |  |  |
| Cc1noc(C)c1COc1ccc(C(=O)OCc2nnc(-c3ccc(Cl)cc3)o2)cc1 | -8.18% |  |  |
| CC(=O)Nc1ccc(C(=O)OCc2ccccc2Br)cc1 | 12.5% |  |  |
| COc1ccc(S(=O)(=O)NNC(=O)c2csc(-n3nc(C)cc3C(F)(F)F)n2)cc1OC | -45.4% | 29.1 µM [falling, single point] | 29.1 µM [falling, single point] |
| Cc1nc(NCCc2ccccc2)c2oc3ccccc3c2n1 | -24.6% |  | 9.2 µM [rising, single point] |
| Cc1cccc(NC(=O)N(C)Cc2cccs2)c1 | 48.4% | 16.4 µM [rising, single point] | 0.82 µM [falling, single point] |
| Cc1ccc(C(=O)CSc2nc(-c3ccccc3)ccc2C#N)cc1 |  | 1.64 µM [rising, partial curve] | 1.64 µM [rising, partial curve] |
| CCOc1ccc(N(CC(=O)NCC2CCCO2)S(=O)(=O)c2ccc(Cl)cc2)cc1 (configuration not stated) | -0.961% |  |  |
| Cn1c(SC2CCCCC2=O)nnc1-c1ccncc1 (configuration not stated) | 122% |  | 29.1 µM [rising, single point] |
| COC(=O)C1C(=O)NCC1c1ccccc1 (configuration not stated) | -21% | 0.411 µM [falling, full curve, poor fit] | 23.1 µM [falling, partial curve] |
| FC(F)Oc1ccc(NC(=S)NCc2ccccc2)cc1Cl | -26.3% |  | 0.731 µM [rising, single point] |
| N/C(=N\OC(=O)c1ccc2ccccc2c1)c1cccc([N+](=O)[O-])c1 | 4.37% |  | 14.6 µM [rising, single point] |
| COc1ccc(C(=O)CC(=O)C(=O)Nc2cc(C)ccc2C)cc1 | 21.3% |  | 0.231 µM [rising, full curve, poor fit] |
| COc1ccc(CNC(=O)C(C)NCc2ccc(S(N)(=O)=O)cc2)cc1 (configuration not stated) | 20.4% |  |  |
| Nc1ccc(C(=O)c2cccs2)cc1 | 5.54% |  | 8.2 µM [rising, partial curve] |
| CSc1ccccc1NC(=O)Cc1ccccc1[N+](=O)[O-] | -19.1% |  | 32.6 µM [falling, single point] |
| Cc1onc(-c2c(Cl)cccc2Cl)c1NC(=O)NNc1ccccn1 | -55.4% | 29.1 µM [falling, single point] | 18.4 µM [falling, single point] |
| CC(C)(C)C(=O)CN1C(=O)NC(c2ccccc2)(c2ccccc2)C1=O | 31.7% | 23.1 µM [rising, partial curve, poor fit] | 1.16 µM [rising, single point] |
| CC(C)OCCCNC(=O)c1c(N)n(/N=C/c2ccccn2)c2nc3ccccc3nc12 | -1.23% |  | 0.82 µM [rising, partial curve] |

Quoted at random: 3 records from the list, in no set order.

| SMILES | cell number change | AC50 [1] | AC50 [2] |
| --- | --- | --- | --- |
| FC(F)Oc1ccc(NC(=S)NCc2ccccc2)cc1Cl | -26.3% |  | 0.731 µM [rising, single point] |
| Cc1cccc(NC(=O)N(C)Cc2cccs2)c1 | 48.4% | 16.4 µM [rising, single point] | 0.82 µM [falling, single point] |
| N/C(=N\OC(=O)c1ccc2ccccc2c1)c1cccc([N+](=O)[O-])c1 | 4.37% |  | 14.6 µM [rising, single point] |

More compounds.

| SMILES | cell number change | AC50 [1] | AC50 [2] |
| --- | --- | --- | --- |
| CN(C(=O)COC(=O)c1ccccc1C(=O)N1CCN(c2ccccc2)CC1)c1ccccc1 | -21.2% |  |  |
| CCN(Cc1ccccc1)C(=O)C1CCC(CNc2c(N3CCOCC3)c(=O)c2=O)CC1 (configuration not stated) | -21.9% |  | 9.2 µM [falling, partial curve, poor fit] |
| COc1cc(CN(C)Cc2ccccc2)cc(OC)c1O | 49.6% | 16.4 µM [rising, single point] |  |
| O/N=C/c1ccn(-c2ccc(Br)cc2)c1 | 30% |  |  |
| CCCCn1c(NC(=O)CC)c(C#N)c2nc3ccccc3nc21 |  | 2.59 µM [falling, single point] | 6.51 µM [falling, single point] |
| C/C=C/C=C/[C@H]1Cc2cc(O)cc(O)c2O1 |  |  | 0.0517 µM [falling, full curve, poor fit] |
| O=C(CCN1CCOCC1)NCc1ccccc1 | 42.7% | 7.31 µM [rising, partial curve] |  |
| Cc1cc2oc(=O)cc(CN3CCN(Cc4ccccc4)CC3)c2cc1C | 11.1% |  | 0.58 µM [falling, single point] |
| Cc1cc(C)c2nc(NC(=O)CN3C(=O)NC4(CCCC4)C3=O)sc2c1 | -10.4% |  | 9.2 µM [falling, partial curve] |
| C=CCn1c(SCC(=O)Nc2c(C)n(C)n(-c3ccccc3)c2=O)nc2sc(C)c(C)c2c1=O | 40.5% | 0.231 µM [rising, full curve] |  |
| Cc1cccc(N=C2CSC(=O)N2)c1 | 41.9% |  |  |
| O=C(OCc1nnc(-c2cccs2)o1)c1cccnc1Cl | -8.65% |  | 29.1 µM [rising, partial curve] |
| Cn1c(NCC(O)CO)nc2c1c(=O)n(Cc1ccc(Cl)c(Cl)c1)c(=O)n2C (configuration not stated) | -10.9% |  | 20.6 µM [falling, single point] |
| Cc1cc(N2CCN(c3nnnn3-c3ccccc3)CC2)n2ncnc2n1 | 14% |  | 0.0731 µM [falling, full curve, poor fit] |
| S=C1NC[C@H](CC2CCCCC2)N1CCCCC1CCCCC1 | -7.32% |  | 13 µM [rising, partial curve, poor fit] |
| CCN(CC(=O)NCc1ccc(Cl)cc1)C(=O)Cc1ccccc1[N+](=O)[O-] | 170% | 25.9 µM [rising, partial curve] |  |
| CCOc1cccc(/C=N/NC(=O)c2cc(-c3cccn3C)n[nH]2)c1O | -44.2% | 16.4 µM [falling, single point] | 18.4 µM [falling, single point] |
| O=C1C2CCCN2C(=O)N1CCCN1CCN(c2cccc(Cl)c2)CC1 (configuration not stated) | 4.83% | 2.91 µM [rising, single point] | 0.00461 µM [falling, full curve, poor fit] |
| CCOC(=O)/C=c1\s/c(=C\c2ccc(-c3ccccc3)cc2)c(=O)n1CC(=O)NCc1ccc2c(c1)OCO2 | -11.4% |  | 29.1 µM [rising, single point] |
